This note sets out measurements from the supplement of paper PMC9226226.

Molecules are shown by their SMILES. Where “and” joins values, the source holds several entries; their conditions need not be identical. Equal values may be shown once. The list shows a part of the results. Some well-known active drugs show little effect in this data set, so a weak value is uncertain.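 Human mesenchymal stem cells lacking the Werner syndrome gene, which age prematurely, were used. Automated live-cell imaging tracked growth across three biological repeats; the twenty drugs raising growth most relative to vehicle advanced, without a stated fixed cutoff.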

The subject of the experiment is Werner syndrome hMSCs (WRN-/-). Nature of the experiment: relative cell density (fold change vs vehicle control); higher = more proliferation (geroprotective). The conditions noted are these: concentration (umol/L): 1, 6 days.

`CCOC(=O)[C@H](CCc1ccccc1)N[C@@H](C)C(=O)N1[C@H](C(=O)O)C[C@@H]2CCC[C@@H]21`: for the setting “vehicle: DMSO”, the relative cell density amounted to 1.01. Under “vehicle: DMSO”, `NS(=O)(=O)c1cc2c(cc1Cl)N=CNS2(=O)=O` registered a relative cell density of 1.17. `CN[C@H](CC(C)C)C(=O)N[C@H]1C(=O)N[C@@H](CC(N)=O)C(=O)N[C@H]2C(=O)N[C@H]3C(=O)N[C@H](C(=O)N[C@H](C(=O)O)c4cc(O)cc(O)c4-c4cc3ccc4O)[C@H](O)c3ccc(c(Cl)c3)Oc3cc2cc(c3O[C@@H]2O[C@H](CO)[C@@H](O)[C@H](O)[C@H]2O[C@H]2C[C@](C)(N)[C@H](O)[C@H](C)O2)Oc2ccc(cc2Cl)[C@H]1O` had a relative cell density (vehicle: Water) of 0.973.

Turning to `COc1ccc(-c2nc3cc(C4=NNC(=O)CC4C)ccc3[nH]2)cc1` (stereo not drawn), the relative cell density (vehicle: DMSO) came to 1.09. On the same count and under the same terms, the same measure for `Cc1cc(C2CCCCC2)n(O)c(=O)c1`: 0.429 and 0.307; for `CC1=C(C(=O)OC(C)C)C(c2cccc([N+](=O)[O-])c2)C(C(=O)OC2CN(C(c3ccccc3)c3ccccc3)C2)=C(N)N1` (stereo not drawn): 1.1; for `COc1cc(C(=O)NS(=O)(=O)c2ccccc2C)ccc1Cc1cn(C)c2ccc(NC(=O)OC3CCCC3)cc12`: 1.04. The same measure, in the same setting: the same measure for `CCOc1cc([C@@H](CS(C)(=O)=O)N2C(=O)c3cccc(NC(C)=O)c3C2=O)ccc1OC`: 0.797; for `O=C(O)c1cc(=O)c2ccccc2o1`: 1.17. In the case of `N=C(N)NC(=O)c1nc(Cl)c(N)nc1N`, the relative cell density is, setting by setting: (vehicle: DMSO) 0.942; (vehicle: Water) 0.933. `CN(C)C(=O)COC(=O)Cc1ccc(OC(=O)c2ccc(NC(=N)N)cc2)cc1` had a relative cell density (vehicle: DMSO) of 0.83. On the same count and under the same terms, with `Nc1ccccc1NC(=O)c1ccc(CNC(=O)OCc2cccnc2)cc1` the figure was 0.767; with `NC(=O)Cc1cccc(C(=O)c2ccccc2)c1N`, 1.03. Regarding `CCCCC1=NC2(CCCC2)C(=O)N1Cc1ccc(-c2ccccc2-c2nnn[nH]2)cc1`, the relative cell density (vehicle: Water) stood at 0.898. `N[C@@H]1CCCCN(c2c(F)cc3c(=O)c(C(=O)O)cn(C4CC4)c3c2Cl)C1` gave a relative cell density (vehicle: Water) of 0.954. Take `CC[C@H]1OC(=O)[C@H](C)[C@@H](O[C@H]2C[C@@](C)(OC)[C@@H](O)[C@H](C)O2)[C@H](C)[C@@H](O[C@@H]2O[C@H](C)C[C@H](N(C)C)[C@H]2O)[C@](C)(OC)C[C@@H](C)C(=O)[C@H](C)[C@@H](O)[C@]1(C)O`: for the setting “vehicle: DMSO”, the relative cell density was 1.05. The same measure, in the same setting: the same measure for `CCCCOC(=O)c1ccc(N)cc1`: 1.14; for `O=C1Cc2cc(CCN3CCN(c4nsc5ccccc45)CC3)c(Cl)cc2N1`: 1.41; for `CC(C)/N=c1\cc2n(-c3ccc(Cl)cc3)c3ccccc3nc-2cc1Nc1ccc(Cl)cc1`: 0.949.

`CCN[C@H]1C[C@H](C)S(=O)(=O)c2sc(S(N)(=O)=O)cc21`: the relative cell density (vehicle: Water) was determined as 0.729.

`Nc1ncn([C@H]2C[C@H](O)[C@@H](CO)O2)c(=O)n1` gave a relative cell density (vehicle: DMSO) of 1.16. Regarding `C[C@]12CC[C@@H]3c4ccc(O)cc4CC[C@H]3[C@@H]1CC[C@@H]2OC(=O)CCC1CCCC1`, the relative cell density (vehicle: DMSO) is 1.22.

Under “vehicle: Water”, `CN(C)c1ccc(O)c2c1C[C@H]1C[C@H]3[C@H](N(C)C)C(=O)C(C(N)=O)=C(O)[C@@]3(O)C(=O)C1=C2O` registered a relative cell density of 1.64. Still for that read-out and setting: the same measure for `O=C([O-])CC(O)(CC(=O)[O-])C(=O)[O-].O=C([O-])CC(O)(CC(=O)[O-])C(=O)[O-].[Bi+3].[K+].[K+].[K+].[K+].[K+]`: 0.579. In the case of `C[C@@H]1[C@H](O)[C@@H](C)/C=C/C=C/C=C/C=C/C=C/C=C/C=C/[C@H](O[C@@H]2O[C@H](C)[C@@H](O)[C@H](N)[C@@H]2O)C[C@@H]2O[C@](O)(C[C@@H](O)C[C@@H](O)[C@H](O)CC[C@@H](O)C[C@@H](O)CC(=O)O[C@H]1C)C[C@H](O)[C@H]2C(=O)O`, the relative cell density (vehicle: DMSO) turned out to be 0.964. For the compound `CCN(CCO)CCCOc1ccc2c(Nc3cc(CC(=O)Nc4cccc(F)c4)[nH]n3)ncnc2c1`, the relative cell density (vehicle: DMSO) worked out at 0.866.

`C=CC(=O)N1CCC(Oc2cc3c(Nc4ccc(Cl)c(Cl)c4F)ncnc3cc2OC)CC1` registered a relative cell density (vehicle: DMSO) of 1.11.

The compound `CN1CCN(C2=Nc3cc(Cl)ccc3Nc3ccccc32)CC1` had a relative cell density (vehicle: DMSO) of 1.48. Take `NC12CC3CC(CC(C3)C1)C2`: the relative cell density (vehicle: DMSO) was found to be 1.24. `Cn1ncc(Cl)c1-c1cc(C(=O)N[C@H](CN)Cc2cccc(F)c2)sc1Cl` registered a relative cell density (vehicle: DMSO) of 1.17.

`CO[C@H]1O[C@@H]2O[C@@]3(C)CC[C@H]4[C@H](C)CC[C@@H]([C@H]1C)[C@@]24OO3` returned a relative cell density (vehicle: DMSO) of 0.704. Still for that read-out and setting: the same measure for `Clc1ccc(COC(Cn2ccnc2)c2ccc(Cl)cc2Cl)c(Cl)c1` (stereo not drawn): 1.08 and 1.04; for `Cc1cc(=O)n(-c2ccccc2)n1C`: 0.355. The same measure, in the same setting: with `CS(=O)(=O)n1cc2c(n1)CN([C@H]1CO[C@H](c3cc(F)ccc3F)[C@@H](N)C1)C2` the figure was 0.965. `CCCN(CCc1cccs1)[C@H]1CCc2c(O)cccc2C1` showed a relative cell density (vehicle: DMSO) of 1.02. In the case of `CC1CCc2c(N3CCC(O)CC3)c(F)cc3c(=O)c(C(=O)O)cn1c23` (stereo not drawn), the relative cell density (vehicle: DMSO) was 1.09. Same read-out and setting: the same measure for `Cc1ccc(-c2ncc(Cl)cc2-c2ccc(S(C)(=O)=O)cc2)cn1`: 1.32. `NCC(=O)O` showed a relative cell density (vehicle: Water) of 0.929. For the compound `COC1C(O)CC(=O)OC(C)CC=CC=CC(OC2CCC(N(C)C)C(C)O2)C(C)CC(CC=O)C1OC1OC(C)C(OC2CC(C)(O)C(O)C(C)O2)C(N(C)C)C1O` (stereo not drawn), the relative cell density (vehicle: DMSO) amounted to 1.05. Same read-out and setting: the same measure for `COc1ccc(CCNCC(O)COc2cccc(C)c2)cc1OC` (stereo not drawn): 1.02; for `CC(C)(Oc1ccc(Cl)cc1)C(=O)O`: 1.12; for `O=NO`: 1.27. Consider `CC(=O)NO`, for which, where the note is “vehicle: DMSO”, the relative cell density worked out at 1.45. Compound `Cc1ccc(NC(=O)c2ccc(CN3CC[C@H](N(C)C)C3)c(C(F)(F)F)c2)cc1Nc1nccc(-c2cncnc2)n1` registered a relative cell density (vehicle: DMSO) of 0.874. Turning to `CC(C)(S)[C@@H](N)C(=O)O`, the relative cell density (vehicle: Water) was 0.661. Where the note is “vehicle: DMSO”, `CCCCCCCCCCC[C@@H](C[C@@H]1OC(=O)[C@H]1CCCCCC)OC(=O)[C@H](CC(C)C)NC=O` displayed a relative cell density of 1.01. Still for that read-out and setting: the same measure for `CC1(C)CCC(CN2CCN(c3ccc(C(=O)NS(=O)(=O)c4ccc(NCC5CCOCC5)c([N+](=O)[O-])c4)c(Oc4cnc5[nH]ccc5c4)c3)CC2)=C(c2ccc(Cl)cc2)C1`: 0.982.
